# Assay results as given in patent publication US20140329275A1, “BIOCATALYSIS CELLS AND METHODS” (REGENTS OF THE UNIVERSITY OF MINNESOTA, priority 2011, published 2014).
# Details: hexane and oleyl alcohol vs aqueous fermentation broth, pH 3.0
smiles,measurement,value
CC(C)CC(=O)O [isovaleric acid],distribution coefficient Kd,high
